From patent US20110178027A1
Results are given in words; binding and its absence hold for the method and conditions named. Some results given as binding are weak or reduced against the parent protein; the word gives no strength.

Chains of the proteins cited; added tags and fusions are not shown. Residues count along the entry.
UniProt P09958, residues 108-715: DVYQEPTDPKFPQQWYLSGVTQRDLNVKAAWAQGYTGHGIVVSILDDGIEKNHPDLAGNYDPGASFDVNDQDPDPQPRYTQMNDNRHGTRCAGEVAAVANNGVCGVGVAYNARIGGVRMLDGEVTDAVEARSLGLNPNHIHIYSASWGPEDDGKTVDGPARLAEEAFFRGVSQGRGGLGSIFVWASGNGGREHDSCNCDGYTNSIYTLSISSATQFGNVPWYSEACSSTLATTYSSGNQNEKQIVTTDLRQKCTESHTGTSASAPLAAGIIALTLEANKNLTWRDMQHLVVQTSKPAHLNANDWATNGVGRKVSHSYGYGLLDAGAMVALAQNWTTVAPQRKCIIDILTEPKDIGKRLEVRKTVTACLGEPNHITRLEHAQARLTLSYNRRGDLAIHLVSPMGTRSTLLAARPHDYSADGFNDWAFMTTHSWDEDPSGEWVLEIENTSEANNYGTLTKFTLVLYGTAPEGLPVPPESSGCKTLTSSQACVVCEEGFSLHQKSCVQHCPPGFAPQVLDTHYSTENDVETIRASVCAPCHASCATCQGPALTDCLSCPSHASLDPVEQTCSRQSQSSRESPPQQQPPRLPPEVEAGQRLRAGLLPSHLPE

Experiments:
Test in all cases: enzyme inhibition assay, fluorogenic substrate PyrRTKR-MCA
PACE4 = target: T1, PACE4 (UniProt P29122)
T1 sequence (looked up): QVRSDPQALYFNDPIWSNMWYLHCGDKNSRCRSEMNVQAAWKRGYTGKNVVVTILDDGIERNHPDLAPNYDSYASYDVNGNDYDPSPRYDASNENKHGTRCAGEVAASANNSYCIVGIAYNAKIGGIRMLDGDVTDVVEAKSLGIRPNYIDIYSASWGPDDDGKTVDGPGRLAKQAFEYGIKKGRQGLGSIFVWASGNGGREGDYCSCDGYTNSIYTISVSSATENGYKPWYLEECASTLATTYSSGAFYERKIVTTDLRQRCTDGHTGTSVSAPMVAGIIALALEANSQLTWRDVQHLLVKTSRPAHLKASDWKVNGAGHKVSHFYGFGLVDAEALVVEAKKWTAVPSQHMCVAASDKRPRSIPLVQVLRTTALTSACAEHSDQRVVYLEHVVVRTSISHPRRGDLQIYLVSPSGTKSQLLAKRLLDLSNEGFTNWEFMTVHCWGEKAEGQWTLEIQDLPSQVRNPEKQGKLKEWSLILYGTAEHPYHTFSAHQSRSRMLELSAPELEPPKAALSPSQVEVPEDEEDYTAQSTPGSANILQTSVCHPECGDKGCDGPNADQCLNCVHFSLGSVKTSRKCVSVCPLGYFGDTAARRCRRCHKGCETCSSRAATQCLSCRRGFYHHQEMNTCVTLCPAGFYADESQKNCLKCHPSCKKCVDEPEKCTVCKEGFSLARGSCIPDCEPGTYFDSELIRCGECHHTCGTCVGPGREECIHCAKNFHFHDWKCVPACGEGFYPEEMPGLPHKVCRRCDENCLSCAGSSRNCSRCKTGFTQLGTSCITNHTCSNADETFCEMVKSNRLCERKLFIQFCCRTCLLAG

PC1/3 = target: T2, PC1/3 (UniProt P29120)
T2 sequence (looked up): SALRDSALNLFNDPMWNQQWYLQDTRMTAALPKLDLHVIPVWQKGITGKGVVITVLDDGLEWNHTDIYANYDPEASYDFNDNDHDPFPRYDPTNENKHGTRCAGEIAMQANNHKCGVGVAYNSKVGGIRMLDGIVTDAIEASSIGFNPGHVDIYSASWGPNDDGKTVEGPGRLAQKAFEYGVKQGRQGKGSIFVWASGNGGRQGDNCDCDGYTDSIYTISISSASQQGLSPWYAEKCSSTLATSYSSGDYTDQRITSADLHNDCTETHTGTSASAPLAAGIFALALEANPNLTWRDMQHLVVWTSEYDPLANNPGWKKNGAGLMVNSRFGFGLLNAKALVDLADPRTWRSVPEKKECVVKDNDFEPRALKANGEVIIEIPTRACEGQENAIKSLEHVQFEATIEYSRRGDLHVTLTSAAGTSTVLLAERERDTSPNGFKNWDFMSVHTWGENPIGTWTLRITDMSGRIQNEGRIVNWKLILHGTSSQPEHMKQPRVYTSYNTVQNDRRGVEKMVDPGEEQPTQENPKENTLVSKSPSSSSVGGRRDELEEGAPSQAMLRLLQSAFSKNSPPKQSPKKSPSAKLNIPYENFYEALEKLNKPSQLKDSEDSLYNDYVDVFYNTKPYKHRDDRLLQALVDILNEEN

PC2 = target: T3, PC2 (UniProt P16519)
T3 sequence (looked up): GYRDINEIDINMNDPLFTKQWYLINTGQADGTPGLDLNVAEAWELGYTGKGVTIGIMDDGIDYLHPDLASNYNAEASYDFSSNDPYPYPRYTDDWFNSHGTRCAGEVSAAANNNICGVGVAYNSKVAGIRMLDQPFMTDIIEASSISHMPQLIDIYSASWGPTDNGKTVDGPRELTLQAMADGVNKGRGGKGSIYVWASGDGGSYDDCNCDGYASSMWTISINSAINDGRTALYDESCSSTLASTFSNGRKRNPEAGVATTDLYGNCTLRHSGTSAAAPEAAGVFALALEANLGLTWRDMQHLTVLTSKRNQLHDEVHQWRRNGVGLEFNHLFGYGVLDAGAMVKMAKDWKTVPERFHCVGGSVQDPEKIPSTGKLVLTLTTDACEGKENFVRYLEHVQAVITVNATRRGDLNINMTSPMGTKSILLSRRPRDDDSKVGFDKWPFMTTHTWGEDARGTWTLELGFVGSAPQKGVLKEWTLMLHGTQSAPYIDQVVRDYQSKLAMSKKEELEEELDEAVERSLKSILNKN

PC5/6 = target: T4, PC5/6 (UniProt Q92824)
T4 sequence (looked up): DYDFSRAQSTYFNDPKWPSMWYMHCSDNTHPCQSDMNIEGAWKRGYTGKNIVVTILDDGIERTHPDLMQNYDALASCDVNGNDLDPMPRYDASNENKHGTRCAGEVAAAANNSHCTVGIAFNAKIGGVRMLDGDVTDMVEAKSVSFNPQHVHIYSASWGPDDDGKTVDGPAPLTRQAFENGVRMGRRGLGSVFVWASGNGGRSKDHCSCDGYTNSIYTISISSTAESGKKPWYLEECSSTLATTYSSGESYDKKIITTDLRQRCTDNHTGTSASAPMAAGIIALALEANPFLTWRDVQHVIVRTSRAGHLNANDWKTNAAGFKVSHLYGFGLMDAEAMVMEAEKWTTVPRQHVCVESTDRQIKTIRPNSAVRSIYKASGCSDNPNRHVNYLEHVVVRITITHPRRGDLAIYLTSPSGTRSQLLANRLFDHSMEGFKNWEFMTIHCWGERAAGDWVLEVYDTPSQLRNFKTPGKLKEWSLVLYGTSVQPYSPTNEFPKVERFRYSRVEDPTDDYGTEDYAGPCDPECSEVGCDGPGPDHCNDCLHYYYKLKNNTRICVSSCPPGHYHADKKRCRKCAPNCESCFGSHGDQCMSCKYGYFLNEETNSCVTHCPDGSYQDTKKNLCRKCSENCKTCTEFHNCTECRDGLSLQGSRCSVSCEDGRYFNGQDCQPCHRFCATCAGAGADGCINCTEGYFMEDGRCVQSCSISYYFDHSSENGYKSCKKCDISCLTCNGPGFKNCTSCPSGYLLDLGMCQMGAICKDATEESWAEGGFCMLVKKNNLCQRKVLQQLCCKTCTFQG

PC7 = target: T5, PC7 (UniProt Q16549)
T5 sequence (looked up): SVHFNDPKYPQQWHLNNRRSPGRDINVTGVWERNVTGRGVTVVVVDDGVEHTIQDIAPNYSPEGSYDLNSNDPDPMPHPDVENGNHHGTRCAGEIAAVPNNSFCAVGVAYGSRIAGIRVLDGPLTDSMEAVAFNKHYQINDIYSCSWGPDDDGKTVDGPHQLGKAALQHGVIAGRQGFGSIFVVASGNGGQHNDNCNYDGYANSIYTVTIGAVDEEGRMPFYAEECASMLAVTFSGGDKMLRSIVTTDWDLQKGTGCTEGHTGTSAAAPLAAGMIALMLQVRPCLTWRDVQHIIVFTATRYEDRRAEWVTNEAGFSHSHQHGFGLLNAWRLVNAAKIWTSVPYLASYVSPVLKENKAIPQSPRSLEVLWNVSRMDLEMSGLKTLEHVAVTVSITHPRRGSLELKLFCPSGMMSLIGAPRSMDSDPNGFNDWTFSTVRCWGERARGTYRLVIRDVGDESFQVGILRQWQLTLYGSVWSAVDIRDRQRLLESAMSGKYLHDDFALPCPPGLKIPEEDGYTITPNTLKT

furin = furin (UniProt P09958)

Measured: binding

B1: LLLLRVKR-NH2 (peptide)
peptide: LLLLRVKR
modifications: C-terminal amide
binds: all assays above

B2: …-NH2 (peptide)
peptide: LLLLLLRVKR
modifications: C-terminal amide
binds: all assays above
